Measurements from “University of Dundee, Small-Polar-MMV Screening Library” (2021), ChEMBL document CHEMBL3988442.

Chains of the proteins cited; added tags and fusions are not shown.
UniProt E9BF75, entry or part of it: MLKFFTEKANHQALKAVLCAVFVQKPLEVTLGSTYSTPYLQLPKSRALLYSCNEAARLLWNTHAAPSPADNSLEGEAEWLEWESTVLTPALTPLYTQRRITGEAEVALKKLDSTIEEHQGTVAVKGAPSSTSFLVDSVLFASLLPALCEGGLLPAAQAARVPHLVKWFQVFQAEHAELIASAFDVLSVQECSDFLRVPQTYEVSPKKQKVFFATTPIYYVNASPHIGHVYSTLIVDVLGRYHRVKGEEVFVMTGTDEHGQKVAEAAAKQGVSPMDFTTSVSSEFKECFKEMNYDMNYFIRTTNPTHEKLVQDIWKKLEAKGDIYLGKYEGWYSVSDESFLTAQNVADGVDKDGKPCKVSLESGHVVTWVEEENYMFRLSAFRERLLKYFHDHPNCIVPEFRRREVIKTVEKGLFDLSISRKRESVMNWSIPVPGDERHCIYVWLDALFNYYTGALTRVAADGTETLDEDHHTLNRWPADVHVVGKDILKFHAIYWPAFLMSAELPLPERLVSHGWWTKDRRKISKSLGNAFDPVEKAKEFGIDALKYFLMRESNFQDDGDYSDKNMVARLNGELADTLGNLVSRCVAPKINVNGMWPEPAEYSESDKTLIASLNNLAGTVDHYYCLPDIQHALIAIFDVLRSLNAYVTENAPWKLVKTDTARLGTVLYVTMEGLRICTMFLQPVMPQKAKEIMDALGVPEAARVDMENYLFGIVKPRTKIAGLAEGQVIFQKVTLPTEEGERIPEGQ

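Methionyl-tRNA synthetase (putative), Leishmania donovani (UniProt E9BF75). Primary screen of methionyl-tRNA synthetase; the read-out is not stated. The test concentration is not given. Values are per cent inhibition. Of about 68,000 compounds tested this way, about 24 (0.035%) reached 50% or more in at least one test.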

All values are in %.
The controls that fix the scale are not given in the record; negative values are as filed.
The compounds are a random part of those screened.

structure | inhibition
CC(C)OCCN1CCC(Nc2nccnc2C#N)CC1 | 12.06%
Cc1cnc(C(=O)N2CC[C@@H]3CN(c4ncccn4)CCO[C@@H]3C2)cn1 | 11.94%
Cn1cc(CN2CC[C@H]3OCC[C@@H](C(=O)NCc4ccco4)[C@@H]3C2)cn1 | 10.66%
CSCC(=O)N[C@H]1CN(Cc2c(C)noc2C)C[C@@H]1C(C)C | 1.003%
CN(C)C(=O)N1CC[C@@H](O)[C@@H]1Cc1ccccc1 | 18.27%
COCc1nc(C(=O)N2CCCC2c2noc(C(C)C)n2)cs1 (centres undefined) | 11.81%
COc1ccc(OC)c(CN2CCCCCC2c2cccs2)c1 (centres undefined) | 9.804%
Cc1nccc([C@H]2C[C@@H]3CCN(Cc4ccco4)C[C@H]3O2)n1 | 8.497%
CC(=O)N1Cc2nc(C(=O)NCCc3cccnc3)oc2C1 | 9.841%
O=C(CN1CCCC(Cn2cncn2)C1)NCc1ccco1 (centres undefined) | 8.661%
CCc1cc(CN(C)C(=O)CN2CC(c3ccccc3)CC2=O)on1 (centres undefined) | 9.524%
CC(C)N1CCCC2(CCN(Cc3noc(C4CCCC4)n3)C2)C1=O (centres undefined) | 1.676%
Cc1ccccc1C(NC(=O)NCC1(CO)CC1)C1CC1 (centres undefined) | 2.957%
Oc1nc(N2CCCC2)nc2c1CCN(Cc1cccnc1)CC2 | 3.955%
O=C(C1CC(=O)N(c2ccccc2)C1)N1CCC2(CC1)OCCO2 (centres undefined) | 4.795%
Cc1nnc(C2CCN(C(=O)c3ccc4[nH]ccc4c3)CC2)s1 | 8.873%
CCn1ccnc1CN1CCNCC1C (centres undefined) | 6.587%
Cc1csc(C2CCCN(C(=O)c3c[nH]c(C)n3)C2)n1 (centres undefined) | 11.96%
COc1ccccc1C(=O)N1CCN(C(=O)CCCc2cn[nH]c2)CC1 | 17.93%
CCc1cc(N2CCC3(CCCNC3=O)C2)nc(N2CCOCC2)n1 (centres undefined) | 6.162%
O=C1CCCN1Cc1nnc2n1CCN(Cc1ccco1)C2 | 6.011%
CN1C(=O)CC(c2ccncc2)C12CCN(c1ncccn1)CC2 (centres undefined) | 19.61%
O=C(c1ccc[nH]1)N1Cc2nccn2CC(Cn2ncccc2=O)C1 (centres undefined) | 11.23%
CCNC(=O)NC1CCC(Oc2ccccc2C#N)CC1 (centres undefined) | 5.928%
Cc1c[nH]c(CN2CCN(C)C3(CCC(=O)N(CC4CC4)CC3)C2)n1 (centres undefined) | 7.801%
Cc1nc(O)cc(CCNC(=O)c2ccccc2N2CCCC2)n1 | 10.41%
CNC(=O)c1[nH]nc2ccc(I)cc12 | 10.63%
Cc1nn(C)c(C)c1CN(C)C(=O)c1cc(NC(=O)C2CC2)n(C)n1 | 4.774%
Cn1cc(CN2CC[C@]3(C[C@H](Oc4ccccn4)CO3)C2)cn1 | 12.64%
CC1CCN(c2nc3ncc4c(c3c(=O)[nH]2)CC(C)(C)CC4=O)CC1 | 16.09%
COCc1cccc(S(=O)(=O)Nc2ncc(C)s2)c1 | -10.76%
CN1CCN(Cc2cccnc2)C2(CCN(c3ncc(F)cn3)C2)C1=O (centres undefined) | 14.17%
CC(C)C(C(=O)N1CCCN(c2cccnn2)CC1)n1cncn1 (centres undefined) | 16.67%
COc1ncccc1-c1cc(C(=O)NC2CC2)ccn1 | 1.511%
Cc1cccc(C(=O)N(CC(=O)O)CC(C)C)c1 | 6.021%
CC(NCc1cnc(C2CCC2)s1)c1ccc(-n2cncn2)cc1 (centres undefined) | 9.023%
O=C(NCc1nncn1C1CC1)Nc1ccc(OC2CCC2)c(F)c1 | 3.855%
Cc1cc(C)n(-c2cncc(NCCC(=O)NC(C)C)n2)n1 | 19.83%
CN(C)Cc1cnn(-c2ccccc2C(=O)NCCC2CCCN2C)c1 (centres undefined) | 10.47%
Cc1ccccc1C(C(=O)N(C)CCc1cn[nH]c1)N(C)C (centres undefined) | 19.35%
CC(C)Cc1nc(CN2CC(=O)N(C)c3ccccc3C2=O)no1 | 17.58%
CCCS(=O)(=O)CCN1CCN(c2cc(F)ccc2F)CC1 | 4.076%
NC(=O)C(NCc1cccs1)c1ccccc1 (centres undefined) | 10.43%
CC(NC(=O)N1CCN(c2ncccn2)CC1)c1ccc(C#N)cc1 (centres undefined) | 3.623%
COc1ccc(C(=O)N2CCCCC2c2ccccn2)c(OC)n1 (centres undefined) | 6.422%
COCC(=O)N1CCN(C)c2ncccc2C1 | 11.83%
Cc1nc(C)c(C(=O)NCC(c2ccccc2Cl)N2CCOCC2)s1 (centres undefined) | 5.978%
Cc1cc(CC(C)NC(=O)c2cccc(CC3CCNCC3)c2)[nH]n1 (centres undefined) | 13.64%
CCS(=O)(=O)CCN1CCN(C(C)c2cccnc2)CC1 (centres undefined) | 3.472%
CC(C)(O)C1CCN(C(=O)Nc2nc(-c3ccccc3)ns2)CC1 | 13.01%
COCc1ccc(C(=O)N2CCC(Oc3ccccc3OC)CC2)s1 | 9.172%
CNC(=O)[C@@H](C)NC(=O)c1cc(-c2ccc(F)cc2)c(C)s1 | 12.01%

The first 4 entries again:

structure,inhibition
CC(C)OCCN1CCC(Nc2nccnc2C#N)CC1,12.06%
Cc1cnc(C(=O)N2CC[C@@H]3CN(c4ncccn4)CCO[C@@H]3C2)cn1,11.94%
Cn1cc(CN2CC[C@H]3OCC[C@@H](C(=O)NCc4ccco4)[C@@H]3C2)cn1,10.66%
CSCC(=O)N[C@H]1CN(Cc2c(C)noc2C)C[C@@H]1C(C)C,1.003%